In brackets after ≈: the same amount, converted by molar mass.

As a reminder, the MIC is the lowest concentration that inhibits growth of the organism.

The experiment has as its system Escherichia coli K-12 substrain MG1655 (ancestor). Briefly: MIC growth test of the ancestor strain in ciprofloxacin. The class given is cell-based. As to conditions: read-out: observed MIC. As for the experimental part: Referring still to FIG. 1, the chemostat involves two layers of different media, separated by density. The top layer media (TLM) 110 was formed of LB broth diluted to 50% to reduce nutrient availability. The bottom layer media (BLM) 120 contained fully concentrated LB broth with 100 g/L of sucrose added so that its density caused it to settle below the TLM which contained no sucrose. To the bottom layer, a high concentration of a stressful compound was added. The appropriate concentration of stressor was determined by growing the ancestor strain on a 96-well microplate in increasing concentrations of the stressor for 24-48 hours, depending on the compound. The determined amount of stressor added to the chemostat was above the observed minimum inhibitory concentration (MIC) of the ancestor. This ensured that any observed growth in the chemostat was due to adaptation rather than a preestablished tolerance of the ancestor strain. […]
Dose-response curves were fit to the exponential growth rate and cell proliferation values calculated from OD600 curves for each sample. […] The ED50 values for the ancestor were calculated using growth rates and cell proliferation values from OD600 curves obtained during a test for the ancestor strain's MIC in ciprofloxacin. […]

As for `O=C(O)c1cn(C2CC2)c2cc(N3CCNCC3)c(F)cc2c1=O` [ciprofloxacin], the MIC amounted to 0.06 µg/mL (≈ 0.181 µM).
